# According to paper PMC11077047, “Activation of zinc uptake regulator by zinc binding to three regulatory sites”:
# Target: T1, Zur H36A (Streptomyces coelicolor) (UniProt Q9L2H5)
# T1 sequence (looked up, limits assumed): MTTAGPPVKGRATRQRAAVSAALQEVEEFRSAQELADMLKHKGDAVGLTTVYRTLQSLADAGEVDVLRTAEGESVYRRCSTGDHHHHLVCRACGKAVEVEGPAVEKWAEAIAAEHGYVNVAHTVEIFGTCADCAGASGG
# Assay: EMSA
# Details: 400 nM Zur, 0-5 uM ZnSO4, faint smeared bands, EMSA: 20 mM Tris-HCl pH 7.8, 150 mM NaCl, 5 mM DTT, 0.1 mg/ml BSA, 5% glycerol, 0.1 ug poly(dI-dC) per 20 ul, 65 nM DNA, recombinant protein, label: 6-FAM in EMSA
Sequence,binding result (hexamer needs higher Zn),binding result
CAAGGCACATGACAACGGTGTTCAGTGCCGCGT (double strand) [zitB 33 bp],binds more weakly,
TCCGCTTGTTGACAACGGTTTCCATATTTGTTG (double strand) [znuA 33 bp (zurbox site 1)],,binds more weakly

# Construct, isoform or probe ends are uncertain for at least one entry. A weaker result is weaker than the reference pair of the same experiment. Tags and fusion partners may be left off the protein sequences shown.
